Results as given in the supplement of paper PMC10849652.
The list shows a part of the results.

The chains behind the UniProt entries cited, without tags or fusion partners. Where a name states a change or a piece, a line headed by the entry shows the natural chain unless it says otherwise.
UniProt Q99729: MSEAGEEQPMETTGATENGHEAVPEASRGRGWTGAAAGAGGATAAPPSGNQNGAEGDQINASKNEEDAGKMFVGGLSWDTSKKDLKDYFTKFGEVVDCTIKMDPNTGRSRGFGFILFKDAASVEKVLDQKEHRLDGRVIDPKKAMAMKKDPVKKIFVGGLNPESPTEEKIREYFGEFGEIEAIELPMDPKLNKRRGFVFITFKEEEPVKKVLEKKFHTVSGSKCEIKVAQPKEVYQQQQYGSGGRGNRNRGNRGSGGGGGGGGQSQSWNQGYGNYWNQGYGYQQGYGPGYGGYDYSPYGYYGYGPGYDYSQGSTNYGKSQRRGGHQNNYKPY
UniProt Q8TDG4: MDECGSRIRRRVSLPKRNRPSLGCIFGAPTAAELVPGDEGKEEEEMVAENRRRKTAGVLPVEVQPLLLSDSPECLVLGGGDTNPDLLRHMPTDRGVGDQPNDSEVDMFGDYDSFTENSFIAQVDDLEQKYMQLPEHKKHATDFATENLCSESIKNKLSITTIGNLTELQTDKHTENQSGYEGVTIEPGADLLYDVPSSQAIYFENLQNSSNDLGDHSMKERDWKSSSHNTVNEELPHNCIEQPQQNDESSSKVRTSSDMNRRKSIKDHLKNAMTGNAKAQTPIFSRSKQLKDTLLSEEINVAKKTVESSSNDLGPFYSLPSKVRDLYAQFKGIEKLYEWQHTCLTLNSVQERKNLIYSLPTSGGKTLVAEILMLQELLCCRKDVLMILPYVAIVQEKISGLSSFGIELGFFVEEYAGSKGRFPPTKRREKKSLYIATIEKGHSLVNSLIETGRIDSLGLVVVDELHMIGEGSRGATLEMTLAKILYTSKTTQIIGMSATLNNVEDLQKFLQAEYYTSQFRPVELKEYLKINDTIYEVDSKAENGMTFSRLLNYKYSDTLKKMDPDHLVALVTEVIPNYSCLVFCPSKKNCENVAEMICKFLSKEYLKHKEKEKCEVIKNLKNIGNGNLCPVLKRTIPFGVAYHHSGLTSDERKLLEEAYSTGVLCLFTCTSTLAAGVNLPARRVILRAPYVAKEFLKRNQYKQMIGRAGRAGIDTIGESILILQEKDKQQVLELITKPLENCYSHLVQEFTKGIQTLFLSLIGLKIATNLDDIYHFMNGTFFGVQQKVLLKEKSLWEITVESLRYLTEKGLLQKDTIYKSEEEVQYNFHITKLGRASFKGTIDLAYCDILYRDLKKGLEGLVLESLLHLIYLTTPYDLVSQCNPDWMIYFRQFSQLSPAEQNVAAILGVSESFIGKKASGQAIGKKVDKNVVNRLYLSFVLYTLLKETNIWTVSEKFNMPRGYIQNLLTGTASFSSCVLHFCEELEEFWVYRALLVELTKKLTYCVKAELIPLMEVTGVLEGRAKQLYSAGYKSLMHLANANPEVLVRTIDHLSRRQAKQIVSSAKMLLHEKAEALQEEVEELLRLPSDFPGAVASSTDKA
UniProt O43390: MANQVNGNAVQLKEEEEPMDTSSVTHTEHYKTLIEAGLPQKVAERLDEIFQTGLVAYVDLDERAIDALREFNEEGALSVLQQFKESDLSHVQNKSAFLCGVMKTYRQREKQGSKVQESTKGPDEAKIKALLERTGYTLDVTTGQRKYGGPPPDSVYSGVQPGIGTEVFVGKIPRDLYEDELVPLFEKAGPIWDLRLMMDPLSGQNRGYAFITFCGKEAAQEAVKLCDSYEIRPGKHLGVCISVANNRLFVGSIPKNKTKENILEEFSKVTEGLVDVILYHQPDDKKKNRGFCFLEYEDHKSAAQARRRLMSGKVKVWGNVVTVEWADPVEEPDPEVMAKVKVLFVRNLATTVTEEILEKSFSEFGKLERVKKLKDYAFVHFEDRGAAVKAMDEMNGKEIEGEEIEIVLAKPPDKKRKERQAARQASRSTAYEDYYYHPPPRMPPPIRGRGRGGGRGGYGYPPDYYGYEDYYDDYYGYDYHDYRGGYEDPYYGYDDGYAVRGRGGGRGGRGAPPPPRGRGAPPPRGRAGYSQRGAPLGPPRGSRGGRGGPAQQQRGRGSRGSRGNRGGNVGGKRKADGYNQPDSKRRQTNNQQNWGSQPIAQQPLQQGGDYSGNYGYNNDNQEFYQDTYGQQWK
UniProt P34931, whole entry, looked up: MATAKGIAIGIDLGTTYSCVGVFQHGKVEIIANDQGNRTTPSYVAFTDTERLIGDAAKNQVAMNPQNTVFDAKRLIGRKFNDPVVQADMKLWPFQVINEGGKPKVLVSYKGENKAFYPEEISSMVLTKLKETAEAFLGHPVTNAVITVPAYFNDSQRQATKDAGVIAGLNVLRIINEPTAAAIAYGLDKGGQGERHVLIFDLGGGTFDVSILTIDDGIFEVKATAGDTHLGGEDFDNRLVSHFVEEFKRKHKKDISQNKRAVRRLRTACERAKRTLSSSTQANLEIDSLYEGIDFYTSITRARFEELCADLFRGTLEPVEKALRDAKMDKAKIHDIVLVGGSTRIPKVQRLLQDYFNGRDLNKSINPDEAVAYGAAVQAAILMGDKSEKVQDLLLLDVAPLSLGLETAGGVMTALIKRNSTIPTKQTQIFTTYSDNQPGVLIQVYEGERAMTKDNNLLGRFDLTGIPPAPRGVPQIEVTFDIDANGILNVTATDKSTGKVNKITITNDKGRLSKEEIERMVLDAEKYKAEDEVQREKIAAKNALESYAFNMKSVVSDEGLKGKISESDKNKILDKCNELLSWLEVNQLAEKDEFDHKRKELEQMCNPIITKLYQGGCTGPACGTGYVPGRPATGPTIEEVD
UniProt Q7LGA3: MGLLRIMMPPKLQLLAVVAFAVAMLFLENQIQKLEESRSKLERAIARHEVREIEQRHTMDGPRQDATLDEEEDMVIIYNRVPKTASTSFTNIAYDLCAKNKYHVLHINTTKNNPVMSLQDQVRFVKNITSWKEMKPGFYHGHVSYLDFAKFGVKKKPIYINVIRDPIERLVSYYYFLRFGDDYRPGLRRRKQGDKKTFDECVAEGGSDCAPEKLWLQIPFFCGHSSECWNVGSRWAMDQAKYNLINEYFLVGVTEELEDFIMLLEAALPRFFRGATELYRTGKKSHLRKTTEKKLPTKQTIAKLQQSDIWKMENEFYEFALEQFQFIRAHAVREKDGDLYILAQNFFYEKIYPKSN
UniProt Q14527: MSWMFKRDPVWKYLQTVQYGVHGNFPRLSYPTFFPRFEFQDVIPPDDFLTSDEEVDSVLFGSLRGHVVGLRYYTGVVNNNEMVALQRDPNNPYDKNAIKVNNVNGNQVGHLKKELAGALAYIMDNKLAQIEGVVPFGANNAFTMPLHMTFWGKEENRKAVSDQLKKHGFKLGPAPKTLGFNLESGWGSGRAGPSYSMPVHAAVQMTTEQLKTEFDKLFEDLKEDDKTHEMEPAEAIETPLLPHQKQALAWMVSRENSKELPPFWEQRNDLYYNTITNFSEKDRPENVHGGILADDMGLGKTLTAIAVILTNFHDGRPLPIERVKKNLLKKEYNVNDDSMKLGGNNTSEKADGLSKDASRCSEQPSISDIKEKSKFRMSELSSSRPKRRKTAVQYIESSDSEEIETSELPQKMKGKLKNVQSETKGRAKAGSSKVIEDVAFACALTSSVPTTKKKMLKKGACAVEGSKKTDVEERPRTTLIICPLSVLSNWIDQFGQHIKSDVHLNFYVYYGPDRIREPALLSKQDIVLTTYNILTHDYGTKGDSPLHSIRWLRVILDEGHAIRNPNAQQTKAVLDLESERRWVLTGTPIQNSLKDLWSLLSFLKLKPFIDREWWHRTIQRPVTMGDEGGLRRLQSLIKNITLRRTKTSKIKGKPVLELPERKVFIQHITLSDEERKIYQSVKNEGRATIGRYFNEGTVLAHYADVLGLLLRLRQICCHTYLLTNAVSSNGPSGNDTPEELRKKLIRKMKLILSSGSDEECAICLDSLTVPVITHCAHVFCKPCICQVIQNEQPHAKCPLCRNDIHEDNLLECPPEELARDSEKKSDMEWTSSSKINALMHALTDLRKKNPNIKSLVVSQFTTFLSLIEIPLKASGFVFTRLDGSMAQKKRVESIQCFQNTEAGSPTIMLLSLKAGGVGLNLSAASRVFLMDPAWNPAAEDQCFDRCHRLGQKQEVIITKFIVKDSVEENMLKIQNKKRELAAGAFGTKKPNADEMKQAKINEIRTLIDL
UniProt Q6DN03, whole entry, looked up: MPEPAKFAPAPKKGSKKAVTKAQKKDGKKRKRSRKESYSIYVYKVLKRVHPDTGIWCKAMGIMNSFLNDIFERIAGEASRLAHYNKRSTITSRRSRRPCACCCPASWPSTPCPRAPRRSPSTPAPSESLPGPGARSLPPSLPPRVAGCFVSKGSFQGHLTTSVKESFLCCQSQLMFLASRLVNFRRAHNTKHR

Assays:
Assay in all cases: log2 fold change, soluble protein after heating vs DMSO (PISA); higher = thermal stabilisation; K562 lysate, 10 uM; active = over 0.2 and 3.5 SD of the protein, either way, in both replicates (recomputed)
ibrutinib = compound: C=CC(=O)N1CCC[C@@H](n2nc(-c3ccc(Oc4ccccc4)cc3)c3c(N)ncnc32)C1 [ibrutinib]
Summary of the method: (§1)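 Thermal stability, expressed as log-two fold change relative to solvent controls, is given from duplicates. Crude K562 extract in PBS pH 7.4 with 1 mM MgCl2, at 1 mg/mL protein, was treated with 10 μM compound for 30 min and heated in aliquots for 3 min across 48°C-58°C. After pooling, adjustment to 0.5% NP-40 at 4°C and centrifugation at 21,000xg for 90 min, supernatant protein was measured by TMTpro 16plex LC-MS/MS with channel sums equalised.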

[1] = compound: CC(=O)c1cnc2ccc(-c3cc(Cl)c(O)c(Cl)c3)nc2c1N[C@H]1CC[C@H](CN(C)C)CC1
Summary of the method: as §1

ralimetinib = compound: CC(C)(C)Cn1c(N)nc2ccc(-c3[nH]c(C(C)(C)C)nc3-c3ccc(F)cc3)nc21 [ralimetinib]
Summary of the method: as §1

[2] = compound: CC(C)(O)CC(=O)NCCn1ccc2ncnc(Nc3ccc(Oc4cccc(C(F)(F)F)c4)c(Cl)c3)c21
Summary of the method: as §1

[3] = compound: CC(C)C1=C2N=C(C=C(N2N=C1)NCC3=CC=CC=C3)NCCCCCCN
Summary of the method: as §1

[4] = compound: CC1=C(C(CC(=O)N1)C2=CC=C(C=C2)C(F)(F)F)C(=O)NC3=C(C=C4C(=C3)C=NN4)F
Summary of the method: as §1

[5] = compound: CC1=C(C2=C(C=C1)C(=O)C3=CC=CC=C3N2CCCN)C
Summary of the method: as §1

[6] = compound: CC1=C(C=C(C=C1)NC(=O)C2=CC(=CC=C2)C(C)(C)C#N)NC3=CC4=C(C=C3)N=CN(C4=O)C
Summary of the method: as §1

[7] = compound: CC1=C(C=C(C=C1)NC(=O)C2=CC(=CC=C2)N(C)C)NC(=O)C3=CC=C(C=C3)O
Summary of the method: as §1

[8] = compound: CC1=CC=C(C=C1)SC2=C3C=C(SC3=CN=C2)C(=O)N
Summary of the method: as §1

vemurafenib = compound: CCCS(=O)(=O)Nc1ccc(F)c(C(=O)c2c[nH]c3ncc(-c4ccc(Cl)cc4)cc23)c1F [vemurafenib]
Summary of the method: as §1

[9] = compound: CCCS(=O)(=O)Nc1ccc(F)c(C(=O)c2c[nH]c3ncc(Cl)cc23)c1F
Summary of the method: as §1

barasertib = compound: CCN(CCCOc1ccc2c(Nc3cc(CC(=O)Nc4cccc(F)c4)[nH]n3)ncnc2c1)CCOP(=O)(O)O [barasertib]
Summary of the method: as §1

[10] = compound: CC[C@@H]1C(=O)N(C)c2cnc(Nc3ccc(C(=O)NC4CCN(C)CC4)cc3OC)nc2N1C1CCCC1
Summary of the method: as §1

volasertib = compound: CC[C@@H]1C(=O)N(C)c2cnc(Nc3ccc(C(=O)N[C@H]4CC[C@H](N5CCN(CC6CC6)CC5)CC4)cc3OC)nc2N1C(C)C [volasertib]
Summary of the method: as §1

[11] = compound: CCn1c(C(=O)N(C2CC2)C2CC2)cc2c3c(ncn3C)c(Nc3cc(C)n(C)n3)nc21
Summary of the method: as §1

[12] = compound: CCn1cc(-c2ccnc3[nH]c(-c4cccc(CN(C)C)c4)cc23)c(-c2ccc(NC(=O)N(C)C)cc2)n1
Summary of the method: as §1

[13] = compound: CN1CCC(CNc2ccc3ncc(-c4cccc(OC(F)(F)F)c4)n3n2)CC1
Summary of the method: as §1

saracatinib = compound: CN1CCN(CCOc2cc(OC3CCOCC3)c3c(Nc4c(Cl)ccc5c4OCO5)ncnc3c2)CC1 [saracatinib]
Summary of the method: as §1

sotrastaurin = compound: CN1CCN(c2nc(C3=C(c4c[nH]c5ccccc45)C(=O)NC3=O)c3ccccc3n2)CC1 [sotrastaurin]
Summary of the method: as §1

Measured: log2 fold change

HNRNPAB isoform 3 (UniProt Q99729)
inactive: ibrutinib -0.029 | [1] -0.159 | ralimetinib -0.037 | [2] 0.006 | [3] -0.007 | [4] 0.055 | [5] -0.003 | [6] -0.01 | [7] -0.013 | [8] 0 | vemurafenib 0.018 | [9] -0.001 | barasertib -0.003 | [10] 0.033 | volasertib 0.019 | [11] 0.011 | [12] -0.096 | [13] -0.004 | saracatinib 0.027 | sotrastaurin -0.013

HELQ (UniProt Q8TDG4)
inactive: ibrutinib 0.054 | [1] 0.072 | ralimetinib -0.007 | [2] -0.017 | [3] -0.012 | [4] 0.203 | [5] 0.003 | [6] -0.036 | [7] 0.046 | [8] -0.002 | vemurafenib 0.12 | [9] -0.064 | barasertib 0.036 | [10] 0.048 | volasertib 0.01 | [11] -0.044 | [12] 0.038 | [13] -0.104 | saracatinib -0.058 | sotrastaurin 0.057

HNRNPR isoform 2 (UniProt O43390)
inactive: ibrutinib -0.023 | [1] -0.198 | ralimetinib 0.01 | [2] -0.001 | [3] 0.004 | [4] 0.003 | [5] 0.001 | [6] -0.001 | [7] 0.006 | [8] 0.036 | vemurafenib -0.005 | [9] 0.023 | barasertib -0.031 | [10] -0.053 | volasertib -0.011 | [11] 0.034 | [12] -0.016 | [13] -0.03 | saracatinib -0.039 | sotrastaurin 0.011

HIST2H3A (UniProt Q71DI3)
inactive: ibrutinib -0.012 | [1] -0.02 | ralimetinib -0.04 | [2] 0 | [3] -0.002 | [4] 0.014 | [5] 0.009 | [6] 0.024 | [7] 0.044 | [8] -0.027 | vemurafenib -0.017 | [9] 0.015 | barasertib -0.021 | [10] -0.009 | volasertib 0.006 | [11] 0.004 | [12] 0.061 | [13] 0.028 | saracatinib 0.007 | sotrastaurin -0.074

HSPA1L (UniProt P34931)
inactive: ibrutinib 0.035 | [1] 0.04 | ralimetinib -0.041 | [2] -0.2 | [3] -0.051 | [4] 0.006 | [5] -0.13 | [6] -0.061 | [7] -0.038 | [8] 0.028 | vemurafenib -0.075 | [9] -0.059 | barasertib -0.095 | [10] -0.128 | volasertib -0.004 | [11] -0.225 | [12] 0.039 | [13] 0.029 | saracatinib 0.043 | sotrastaurin 0.064

HS2ST1 (UniProt Q7LGA3)
inactive: ibrutinib 0.002 | [1] 0.003 | ralimetinib 0.021 | [2] 0.027 | [3] -0.009 | [4] -0.023 | [5] 0.006 | [6] 0.005 | [7] -0.031 | [8] 0.012 | vemurafenib -0.082 | [9] 0.009 | barasertib -0.057 | [10] -0.02 | volasertib -0.015 | [11] 0.003 | [12] -0.01 | [13] -0.023 | saracatinib -0.022 | sotrastaurin 0.058

HLTF (UniProt Q14527)
inactive: ibrutinib 0.016 | [1] 0.054 | ralimetinib 0.024 | [2] -0.017 | [3] -0.023 | [4] 0.046 | [5] 0.048 | [6] -0.022 | [7] 0.003 | [8] -0.018 | vemurafenib -0.008 | [9] -0.044 | barasertib 0.077 | [10] -0.002 | volasertib -0.043 | [11] 0.028 | [12] -0.024 | [13] 0.073 | saracatinib 0.004 | sotrastaurin 0.017

HIST2H2BC (UniProt Q6DN03)
active: [12] 0.291
inactive: ibrutinib 0.003 | [1] -0.052 | ralimetinib -0.013 | [2] 0.003 | [3] -0.055 | [4] 0.066 | [5] 0.029 | [6] -0.001 | [7] 0.032 | [8] 0.031 | vemurafenib -0.261 | [9] 0.026 | barasertib -0.029 | [10] -0.05 | volasertib 0.013 | [11] 0.033 | [13] -0.024 | saracatinib 0 | sotrastaurin -0.01
